The data set has as its target T1, ZapT-His (ZapT-3xFLAG-6xHis) (Caulobacter crescentus NA1000) (UniProt A0A0H3C832).
T1 sequence (looked up): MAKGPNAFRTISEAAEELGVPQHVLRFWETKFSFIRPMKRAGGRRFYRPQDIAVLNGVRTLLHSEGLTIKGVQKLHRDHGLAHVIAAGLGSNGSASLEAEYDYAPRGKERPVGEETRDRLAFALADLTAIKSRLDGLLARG
Nature of the data set: EMSA. To be noted: 5 mM Mg acetate, free DNA decreases, no discrete complex band, 50% point comparable for E1-E3, 20 mM HEPES-KOH pH 7.6, 100 mM NaCl, 10% glycerol, 0.01% Triton X-100, 0.1 mg/ml BSA, 10 nM DNA, 10 min on ice, 6% PAGE, GelStar stain, recombinant protein, residues 1-141, protein details: C-terminal 3xFLAG and 6xHis (pET21a01434_3F6H), probe letters rebuilt from the primers and the genome.

The record followed here is PMC7188993.

Protein sequences can lack the tags named with them.

On to “CGAGGTGATCATCGTGTCGAATTCCACCCGCCGGGCGCCCGCCTTCAGCGGCCTGACCGTCACCTTGGTGGTTTCCCGGGCGACATAGGCCAGCTCCGGGCCGGAATTGACGATCCAGTCGACCTCGAGCGTCAGGGTCCCGCCACCTTCGGCGTCGCCCAGAAAGCGTTTCTCGCGAACGAAGTACGACAGGTTCTTCATGTACCAGCCGTCGGCGACGGACTTTCCGTTCGCCTGCACCTTCATCCAGGCCCACCAGACGCCCCGGTGATGCGGATGATCGCCCGGCTTGTCCTCGGTCAGCGCGGTTCCGTCCGGCGCATAGAGCGGGCTGACATAGTTG (double strand) [E2]”, for which the binding result was “binds”.
